# Values quoted from earlier work, collected in patent US20230346889A9, “TREATMENT OF ACUTE HEART FAILURE” (AnaCardio R&D AB, priority 2019, published 2023).
# At least one compound was matched to its structure with a doubt left.
# Details: in vivo; cited from earlier work
structure (smiles),measurement,value
CCCCCCCC(=O)OC[C@H](NC(=O)[C@H](CO)NC(=O)CN)C(=O)N[C@@H](Cc1ccccc1)C(=O)N[C@@H](CC(C)C)C(=O)N[C@@H](CO)C(=O)N1CCC[C@H]1C(=O)N[C@@H](CCC(=O)O)C(=O)N[C@@H](Cc1cnc[nH]1)C(=O)N[C@@H](CCC(N)=O)C(=O)N[C@@H](CCCNC(=N)N)C(=O)N[C@H](C(=O)N[C@@H](CCC(N)=O)C(=O)N[C@@H](CCC(N)=O)C(=O)N[C@@H](CCCNC(=N)N)C(=O)N[C@@H](CCCCN)C(=O)N[C@@H](CCC(=O)O)C(=O)N[C@@H](CO)C(=O)N[C@@H](CCCCN)C(=O)N[C@@H](CCCCN)C(=O)N1CCC[C@H]1C(=O)N1CCC[C@H]1C(=O)N[C@@H](C)C(=O)N[C@@H](CCCCN)C(=O)N[C@@H](CC(C)C)C(=O)N[C@@H](CCC(N)=O)C(=O)N1CCC[C@H]1C(=O)N[C@@H](CCCNC(=N)N)C(=O)O)C(C)C [Ghrelin],half-life in blood plasma,24 to 30 min
